The results in this text go back to patent US9523081B2, “Method for enhancing therapeutic effect of stem cells on autoimmune diseases, cardiovascular diseases, and/or hematological diseases” (GWO XI STEM CELL APPLIED TECHNOLOGY CO., LTD., priority 2014, dated 2016).

This data set deals with GAPDH. Kind of data set: RT-PCR gene expression of GAPDH (control gene) in ligustilide-treated ADSCs. In kind it is cell-based. Conditions: 24 hours. Here is the method: ADSCs were cultured in the K-SFM as prepared in Example 1 at 37° C. in 5% CO2. The ADSCs were divided into […], and each group was treated with different concentrations (0, 0.625, 1.25, 2.5, 5 and 10 μg/ml) of (Z)-ligustilide for 24 hours, respectively.
The culture medium were removed from each group of stem cells in Experiment (1), then 1 ml of TRIzol reagent (Invitrogen) was added into each well and incubated at room temperature for 5 minutes. The stem cells were scraped by using a spatula and placed into a 1.5 ml microtube. Then, the cells were lysed completely, and 0.2 ml of trichloromethane (CHCl3) was added into the microtube. The microtube was shaken up and down for 15 seconds and incubated at room temperature for 2 to 3 minutes. The mixture was centrifuged (at 12000 g for 15 minutes at 4° C.). The supernatant was transferred into another 1.5 ml microtube, and 0.5 ml of isopropanol was added therein and mixed completely. The mixture was incubated at room temperature for 10 minutes and then centrifuged (at 12000 g for 10 minutes at 4° C.). The supernatant was removed. The remained sediment was washed with 1 ml of 75% ethanol-containing DEPC water (i.e. diethylpyrocarbonate-treated H2O) and centrifuged (7500 g at 4° C. for 5 minutes) again. The supernatant was removed. The remained sediment was dried by vacuum-pumping. The dried sediment was dissolved in about 0.01 ml to 0.02 ml of DEPC water to obtain total RNA of ADSCs of experimental group and blank group, respectively. The absorbance at a wavelength of 260 nm (OD260) of the samples were determined by a spectrophotometer (DU-800, Beckman) to evaluate the concentration of RNA. Then, the RNA was stored at −80° C. and used in the following Experiment (3).
The effects of ligustilide on increasing the expression of differentiation-promoting genes (e.g., BDNF and NURR1), increasing the expression of homing-promoting genes (e.g., CXCR4 and SDF1αβ), and decreasing the expression of inflammatory genes (e.g., IL-6 and IL-8) was analyzed by reverse transcription polymerase chain reaction (RT-PCR), wherein the gene expression of glyceraldehyde 3-phosphate dehydrogenase (GAPDH) was served as a control group, and the steps were described as follows.
The total RNA provided in the above Experiment (2) was reverse transcribed into cDNA. 2.5 μl of each primer (10 pM) shown in Table 1A, 7.5 μl of ddH2O, and 12.5 μl of EconoTaq® PLUS GREEN 2X Master Mix (Lucigen, Middleton, Wis., USA) were mixed with 2.5 μl of the cDNA. The mixture was placed in a RT-PCR machine. […]
The obtained RT-PCR product was analyzed by 1.5% agarose gel electrophoresis for 30 minutes (voltage: 100 volts (V)). […]

Take `CCC/C=C1\OC(=O)C2=C1CCC=C2` [ligustilide, (Z)-ligustilide]: the “GAPDH expression level (Image J), control gene” value is 6892.26 (0.625 μg/ml ligustilide), 7615.03 (1.25 μg/ml ligustilide), 8186.79 (2.5 μg/ml ligustilide) and 8265.67 (5 μg/ml ligustilide).
